Reference: the supplement of paper PMC3334620
Whole data set: some 33,000 sequences, median “E-score (-0.5 to 0.5)” near -0.016, cut for the highest 2% near 0.3. Some of the results follow.

What follows are sequences tested against T1, Yer184c (UniProt P39961) (assay: PBM E-score (8-mer binding enrichment) (E-score (-0.5 to 0.5)); higher = stronger / more preferred TF binding). Details: protein concentration: 100 nM; construct: GST-full length.
T1 sequence: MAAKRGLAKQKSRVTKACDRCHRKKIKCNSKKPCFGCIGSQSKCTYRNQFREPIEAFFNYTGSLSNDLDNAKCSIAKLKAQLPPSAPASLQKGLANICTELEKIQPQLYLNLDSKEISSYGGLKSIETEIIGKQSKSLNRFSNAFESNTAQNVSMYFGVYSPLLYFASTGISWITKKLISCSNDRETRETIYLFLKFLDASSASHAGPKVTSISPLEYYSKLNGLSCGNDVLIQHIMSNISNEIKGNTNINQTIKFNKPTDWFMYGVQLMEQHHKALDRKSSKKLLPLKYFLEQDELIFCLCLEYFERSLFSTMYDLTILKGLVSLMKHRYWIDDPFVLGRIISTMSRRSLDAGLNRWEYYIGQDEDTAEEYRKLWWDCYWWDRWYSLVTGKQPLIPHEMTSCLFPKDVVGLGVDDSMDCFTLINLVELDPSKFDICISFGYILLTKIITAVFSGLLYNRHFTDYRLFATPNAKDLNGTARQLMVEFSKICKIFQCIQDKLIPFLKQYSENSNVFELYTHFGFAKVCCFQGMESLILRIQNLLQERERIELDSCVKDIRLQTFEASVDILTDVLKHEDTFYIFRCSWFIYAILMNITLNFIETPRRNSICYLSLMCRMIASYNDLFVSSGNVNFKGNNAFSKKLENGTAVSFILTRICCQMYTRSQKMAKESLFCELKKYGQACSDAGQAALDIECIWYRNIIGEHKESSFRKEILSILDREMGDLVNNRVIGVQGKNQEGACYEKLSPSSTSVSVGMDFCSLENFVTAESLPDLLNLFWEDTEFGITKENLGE
Summary of the method: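 E-scores (a modified Wilcoxon-Mann-Whitney statistic) were assigned by the Universal PBM Analysis Suite to every ungapped eight-base word pooled with its reverse complement. The input came from universal all-10-mer Agilent arrays made double-stranded by primer extension and probed with GST-tagged yeast transcription factors at about 100-200 nM. Fluorescent anti-GST detected bound protein, and masliner normalised the scans.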

Row | Sequence | PBM E-score
1 | CTAACTCA | -0.045
2 | ATCGAACA | 0.0698
3 | CGGATGGC | 0.123
4 | GCGTTCGA | 0.0373
5 | ACATTTTA | 0.0272
6 | GCCAGAGC | -0.282
7 | GGCGCAAA | -0.00247
8 | AGCCCAAA | 0.056
9 | CCCGCCAA | -0.0677
10 | CGGGCGGC | 0.0253
11 | ACAGCAGT | 0.0227
12 | CGAAGCGA | 0.146
13 | AAACTCAA | 0.184
14 | ATGTTTCC | 0.176
15 | CGTGGGTC | -0.113
16 | AGAGGGAC | -0.159
17 | AAGTGACT | -0.121
18 | CCTGGTGA | -0.146
19 | CAATCTCC | -0.0485
20 | AACCCGAC | 0.0624
21 | CAACAATA | 0.06
22 | ACCCCCCT | -0.402
23 | TACTGTCA | -0.0937
24 | AGGATTCA | -0.194
25 | CTCCAAGA | -0.133

Taken from above:
Entry of CGTGGGTC under PBM E-score: -0.113
Entry of GCGTTCGA under PBM E-score: 0.0373
Entry of ATGTTTCC under PBM E-score: 0.176
Entry of AAGTGACT under PBM E-score: -0.121
Entry of AAACTCAA under PBM E-score: 0.184

Additional entries follow.

Row | Sequence | PBM E-score
26 | CTGGAGTC | -0.31
27 | CTACCGAA | 0.105
28 | CGCCTAAC | -0.0428
29 | GCTAGTGA | -0.0791
30 | CCGGTTAG | 0.205
31 | CGGCGCAG | 0.129
32 | AGTACCAC | -0.188
33 | ACCCTCAT | -0.25
34 | AACGAGTG | -0.0309
35 | TAACAGGA | 0.0488
36 | ATACTCCG | 0.321
37 | CGAAATGC | 0.0794
38 | GCCGATAC | 0.13
39 | CACGCATC | 0.0612
40 | AGGAATGA | 0.0599
41 | GTGCGACA | -0.0806
42 | AGTTAGTC | -0.0517
43 | ACGCAAGT | -0.0717
44 | CGTGGGCA | -0.291
45 | CGTATCGA | -0.123
46 | AACATTGA | 0.101
47 | CCACTCGA | -0.00486
48 | CGTGAGAA | 0.0698
49 | CGCGGGAC | 0.127
50 | CATGGCAC | -0.0107

Row | Sequence | PBM E-score
51 | CACTTCCG | 0.137
52 | AGTTAGGA | 0.0742
53 | GGCTAGTA | 0.108
54 | ACTTCCCG | 0.148
55 | ACCCTCGT | -0.116
56 | AATTGCGC | 0.16
57 | CATGGTAA | -0.113
58 | ACGTATAC | -0.0033
59 | CTTTCCAC | -0.06
60 | ATACCGCG | 0.105
61 | ATTTATTG | -0.0214
62 | GTTGGACA | -0.0236
63 | ATAGAAAG | -0.0692
64 | GAGCGCTC | 0.00754
65 | TACTATGA | 0.142
66 | AGTCGGAC | 0.0344
67 | CTGCCGCC | -0.0785
68 | GTTGCCTA | -0.0964
69 | GACCATCA | -0.0725
70 | CAAGTTGA | -0.0734
71 | AAAGTTAA | 0.0874
72 | AAGTAAGT | 0.0312
73 | AACGGCAG | 0.147
74 | ACTTATAC | 0.0816
75 | ATTGTGTC | 0.0892

Two records picked at random from the list so far, as already listed:
Row | Sequence | PBM E-score
61 | ATTTATTG | -0.0214
70 | CAAGTTGA | -0.0734

The listing continues.

Row | Sequence | PBM E-score
76 | GATCTCGC | -0.0742
77 | CAATTCTC | 0.0231
78 | GGAGTTTA | 0.127
79 | AACGTTCC | 0.013
80 | CTTGAGAA | -0.116
81 | ATTTCGTA | -0.0477
82 | AACTTCTC | 0.0331
83 | CCGATTTC | 0.14
84 | CCCCGCCC | 0.169
85 | ATACCAAA | 0.11
86 | ATGCACTC | -0.245
87 | ACAGATAG | -0.00985
88 | GCTGGGTA | -0.192
89 | AACAGTAT | 0.0786
90 | CCATTGAG | -0.0263
91 | ACTTATGG | -0.141
92 | ACCGGGCT | 0.145
93 | AGATACAC | -0.0908
94 | ACTAATTA | 0.183
95 | GCCGATCA | 0.226
96 | GATTCGAA | 0.189
97 | CACCATCC | -0.292
98 | CATCACAC | -0.0415
99 | AGATTGCT | -0.176
100 | AAATCAGC | 0.0662

Row | Sequence | PBM E-score
101 | GAACAATC | 0.172
102 | CATGCAGG | -0.244
103 | CTTCGCCC | -0.289
104 | GTTGAATA | 0.125
105 | AGTGATGC | 0.00056
106 | CCAACCGG | 0.215
107 | AGTTCCTC | -0.0432
108 | TGGACCAA | -0.0558
109 | ATAGACAC | 0.0707
110 | CCCATAAG | -0.262
111 | AGCCTCCT | -0.163
112 | ACCCTAGG | -0.0568
113 | AATGGCTA | -0.0331
114 | GGGTATGA | -0.0312
115 | CCAAAAGA | 0.204
116 | AGGCGAGC | -0.186
117 | GTTAGCAA | 0.0352
118 | CACCGACG | 0.182
119 | AAATGAGC | 0.038
120 | ATATCCAC | 0.0617
121 | CGTACCTC | -0.136
122 | ATTCGGCG | 0.282
123 | AGGCGTAT | -0.0405
124 | CAACGCAA | 0.143
125 | GGCGAACA | 0.0503

Row | Sequence | PBM E-score
126 | ACATGGGG | -0.216
127 | CGTCGTCC | -0.0115
128 | CCCGGCGG | 0.224
129 | GCTAACAC | 0.00951
130 | GTCCGGCA | 0.285
131 | ACGTTTTC | 0.131
132 | GTCTGAAC | -0.0367
133 | AAGAATTC | 0.108
134 | AAGGCGAA | -0.0849
135 | ATTAAAAA | 0.323
136 | AGGCAACC | -0.0513
137 | AACCAGGC | 0.0262
138 | TCGTGAGA | 0.0625
139 | CTCGCACC | -0.0508
140 | AAAGGCGC | -0.0168
141 | TCAAGTCA | 0.00563
142 | AAGAAGTA | 0.0582
143 | AAGATACA | 0.0723
144 | ATATGGGG | -0.278
145 | CACCAAGC | -0.224
146 | AGAGAGCG | -0.162
147 | GGTCTGTA | 0.0177
148 | ATGGGGGC | -0.36
149 | CAGTCCCC | -0.406
150 | ACTAGACG | -0.0203

Row | Sequence | PBM E-score
151 | CACAAATG | -0.0328
152 | GTACGGCA | 0.0888
153 | GCGGACCC | 0.11
154 | CAACGGAA | 0.36
155 | ATATGAAC | 0.0621
156 | CCAGTGAC | -0.282
157 | ACCGGCAT | 0.293
158 | GTCACGGA | 0.172
159 | CAGATTGG | -0.188
160 | CTTCACTA | 0.0629
161 | ACGCTAGA | -0.249
162 | ACCGAGGA | 0.0869
163 | TAGTGCCA | -0.137
164 | TAGTAAAA | 0.224
165 | ATCAAGTA | -0.133
166 | CCATACGA | -0.065
167 | ACAATCTG | -0.0833
168 | AGTATGTA | -0.00556
169 | ACACCGGC | 0.27
170 | CGACTGTA | -0.2
171 | TATCCTAA | 0.123
172 | AAGCAGTC | -0.115
